Assay results taken from paper PMC6085464.
No constants are given. Whether binding was seen depends on the method and setting. Binding calls can cover weak binding; strength is not graded here. Where a sequence is shown, tags or fusion partners need not be part of it.

Sequences of proteins named here, by UniProt entry; tags and fusion partners are left off. A change or cut given only in a name is not applied to a line headed by its entry.
UniProt O95388: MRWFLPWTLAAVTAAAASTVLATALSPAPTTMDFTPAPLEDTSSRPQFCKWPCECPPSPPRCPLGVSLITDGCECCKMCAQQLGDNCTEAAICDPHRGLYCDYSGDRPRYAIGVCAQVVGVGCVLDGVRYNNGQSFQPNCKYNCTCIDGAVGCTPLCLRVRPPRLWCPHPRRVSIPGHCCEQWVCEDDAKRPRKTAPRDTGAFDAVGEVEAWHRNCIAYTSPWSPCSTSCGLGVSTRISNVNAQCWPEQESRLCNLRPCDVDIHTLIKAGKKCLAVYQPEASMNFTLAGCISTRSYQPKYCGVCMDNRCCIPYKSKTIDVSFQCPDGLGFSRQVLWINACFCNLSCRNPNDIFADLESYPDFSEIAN

Target: polyhistidine tagged WISP1 (His6-WISP1) (not stated (human or mouse cDNA cloned)) (UniProt O95388)
Assay: pull-down; His6-WISP1 immobilised on Ni-NTA magnetic agarose beads, incubated with GST-Siah-1; extensive washing, beads boiled in SDS sample buffer, immunoblot with anti-GST and anti-WISP1 antibodies; n = 3; both purified

binding: binds
B1: GST-Siah-1 fusion protein (full-length, wild-type Siah-1) (enzyme, UniProt Q8IUQ4-1 1-282)
chain: MSRQTATALPTGTSKCPPSQRVPALTGTTASNNDLASLFECPVCFDYVLPPILQCQSGHLVCSNCRPKLTCCPTCRGPLGSIRNLAMEKVANSVLFPCKYASSGCEITLPHTEKADHEELCEFRPYSCPCPGASCKWQGSLDAVMPHLMHQHKSITTLQGEDIVFLATDINLPGAVDWVMMQSCFGFHFMLVLEKQEKYDGHQQFFAIVQLIGTRKQAENFAYRLELNGHRRRLTWEATPRSIHEGIATAIMNSDCLVFDTSIAQLFAENGNLGINVTISMC
